Among all 400,000 compounds or so, about 5,500 (1.4%) were called active. The inconclusive results got no clear call from the source; some entries with a clear call stand among them for comparison. The call rests on the fitted dose curve; in most records, active means well fitted cell-killing curve with a large enough effect; inconclusive means small, poorly fitted or top-dose-only effect, or effect the other way; inactive means flat fitted curve, though single readings scatter. A potency beside an inconclusive call is a rough fit, not a confirmed value.
Test: qHTS assay for MDR1-selective chemotherapeutics: Primary screen using the parental adenocarcinoma cell KB-3-1; further: nearly all actives have a fitted effect of over 60% in size
Settings: KB-3-1 viability, CellTiter-Glo ATP luminescence, 72 h; activity change, negative = cytotoxic: at 46.1 µM (top of the series)
Summary of the method: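 Cells are dispensed, compounds pinned in, plates held at 37 °C for 72 h, then CellTiter-Glo is added and luminescence read after 10 minutes. Cell line: parental KB-3-1 in phenol-red-free DMEM, 10% FBS.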
In the case of Nc1ccc2ccc3cccc[n+]3c2c1, the Potency is reported as inconclusive: 13 µM [cytotoxic, single point].
For COCCNC(=O)N1[C@H]2CC[C@@H]1C(C(=O)OC)=C(c1ccc(-c3ccccc3)c(F)c1)C2, the Potency was “inactive”.
For O=C1NC(=O)N(CCc2ccc(F)cc2)C(=O)/C1=C\C=C\c1ccccc1, the Potency was active: 16.4 µM.
For CCOC(=O)C1(c2ccccc2)CCN(CCc2ccc(NC(=O)CCC(=O)O)cc2)CC1, the Potency was “inactive”.
In the case of CC1=CC(=C2C(=O)NC(=O)NC2=O)C=C(C(F)(F)F)N1C(C)C, the Potency is reported as “inactive”.
With Cc1c(C(=O)O)cc(-c2ccccc2)n1Cc1ccccc1 the Potency was “inactive”.
In the case of N#Cc1cccc(NC(=O)CSc2nc3c(cc2C#N)N2CCC3CC2)c1, the Potency is reported as inconclusive: 18.4 µM [cytotoxic, partial curve, poor fit].
For O=[N+]([O-])c1oc2ccc3ccccc3c2c1CCO, the Potency was inconclusive: 0.206 µM [cytotoxic, full curve, poor fit].
In the case of CCOC(=O)c1c(N)n(CCCOC(=O)c2ccco2)c2nc3ccccc3nc12, the Potency is reported as active: 11.6 µM.
For O=C(Cc1ccc(Br)cc1)N1CCN(Cc2ccccc2)CC1, the Potency was inconclusive: 35.5 µM [cytotoxic, single point].
In the case of O=C1NC2C(=CC(O)C(O)C2O)c2cc3c(cc21)OCO3 (centres undefined), the Potency is reported as active: 3.26 µM.
In the case of COC1C(O)C(C)OC(OC2CCC3(C)C(CCC4C3C(O)CC3(C)C(C5=CC(=O)OC5)CCC43O)C2)C1O (centres undefined), the Potency is reported as active: 0.206 µM.
For CCn1cc(C(=O)N2CCOCC2)c2ccccc21, the Potency was inconclusive: 0.0231 µM [rising, full curve].
In the case of C=C(C)[C@@]12OC3(c4ccccc4)O[C@@H]1C1[C@@H]4O[C@]4(CO)[C@@H](O)[C@]4(O)C(=O)C(C)=C[C@H]4[C@@]1(O3)[C@H](C)[C@H]2OC(=O)/C=C/C=C/c1ccccc1 (some centres undefined), the Potency is reported as inconclusive: 29.1 µM [cytotoxic, single point].
For COc1ccc(CN2C(=O)NC(=O)/C(=C/c3ccc(OC)c(OC)c3OC)C2=O)cc1, the Potency was “inactive”.
In the case of CCCCCN1C(=O)c2ccccc2[C@@]2(C(=O)OCC)Cc3cc(Cl)ccc3[C@@H]12, the Potency is reported as inconclusive: 29.1 µM [cytotoxic, single point].
For Cc1cc(OC(=O)c2ccco2)c2c3c(c(=O)oc2c1)CCCC3, the Potency was inconclusive: 29.1 µM [cytotoxic, single point].
In the case of CN1C(=O)C(=Cc2ccccc2OCc2ccccc2Cl)C(=O)N(C)C1=O, the Potency is reported as inconclusive: 23.1 µM [cytotoxic, single point].
In the case of NP(=O)(OCCCCc1ccccc1)Oc1ccccc1Cl (centres undefined), the Potency is reported as “inactive”.
With CCCCc1nc2ccccc2c(=O)n1-c1ccc(Cl)cc1[N+](=O)[O-] the Potency was “inactive”.
With CC(C)CNC(=O)c1c(N)n(Cc2ccc3c(c2)OCO3)c2nc3ccccc3nc12 the Potency was inconclusive: 29.1 µM [cytotoxic, single point].
In the case of COc1cccc(C2CC3C(=O)C=CC2N3Cc2ccccc2)c1 (centres undefined), the Potency is reported as inconclusive: 25.9 µM [cytotoxic, partial curve, poor fit].
For COc1cc2c(c(OC)c1O)-c1ccc(OC)c(=O)cc1C(NC(=O)C(F)(F)F)CC2 (centres undefined), the Potency was inconclusive: 0.0058 µM [cytotoxic, full curve, poor fit].
For COc1ccc(C(c2nnnn2Cc2ccccc2)N2CCC3(CC2)C(=O)NCN3c2ccccc2)cc1 (centres undefined), the Potency was inconclusive: 29.1 µM [cytotoxic, single point].
In the case of COc1ccccc1CCNC1CCCCCC1, the Potency is reported as “inactive”.
With N#CC1=C(N)Oc2c(c(=O)oc3ccccc23)C1c1ccncc1 (centres undefined) the Potency was “inactive”.
In the case of CCN(CC)C(=O)c1ccc(NC(=O)Cn2nc(-c3ccc(C)cc3)c3ccccc3c2=O)cc1, the Potency is reported as inconclusive: 32.6 µM [rising, single point].
For O=Cc1cn(Cc2ccc([N+](=O)[O-])cc2)c2ccccc12, the Potency was active: 6.51 µM.
In the case of Cc1ccc(Cn2cccc(C(=O)Nc3nnc(C)s3)c2=O)cc1, the activity change, negative = cytotoxic is reported as inconclusive: -2.24%.
For Cc1cc(NC(=O)CCl)no1, the Potency was inconclusive: 23.1 µM [cytotoxic, single point].
In the case of Nc1ccc(C2(c3ccc(N)cc3)c3ccccc3-c3ccccc32)cc1, the Potency is reported as “inactive”.
In the case of Cc1ccc(NC(=O)c2snnc2C)cc1Cl, the Potency is reported as inconclusive: 32.6 µM [cytotoxic, single point].
In the case of C=CCN1C(=O)NC(=O)/C(=C/c2cnc(SC)nc2)C1=O, the Potency is reported as “inactive”.
For CC(=O)OC(C)(C)/C=C/C(=O)[C@](C)(O)[C@H]1[C@H](O)C[C@@]2(C)[C@@H]3CC=C4[C@H](C[C@H](O)C(=O)C4(C)C)[C@]3(C)C(=O)C[C@]12C, the Potency was active: 0.146 µM.
With COc1ccc(C(c2nnnn2-c2ccc3c(c2)OCCO3)N2CCC3(CC2)C(=O)NCN3c2ccccc2)cc1 (centres undefined) the Potency was inconclusive: 29.1 µM [cytotoxic, single point].
For O=C(Nc1ccccc1)c1c(O)c2c(n(Cc3ccco3)c1=O)CCCC2, the Potency was inconclusive: 29.1 µM [rising, single point].
With C=C1C(=O)O[C@@H]2C[C@@H](C)[C@@H]3C4OC4C(=O)[C@@]3(C)[C@@H](O)[C@H]12 (some centres undefined) the Potency was “inactive”.
In the case of NC(Cc1ccc(Cl)cc1)c1csc(Nc2ncccn2)n1 (centres undefined), the Potency is reported as inconclusive: 29.1 µM [cytotoxic, single point].
With O=C(Nc1cccc(Cl)c1)OC1CN2CCC1CC2 (centres undefined) the Potency was inconclusive: 29.1 µM [cytotoxic, single point].
For CCOC(=O)c1ccc(NC(=O)c2cccn(Cc3ccc(C)cc3)c2=O)cc1, the Potency was inconclusive: 2.06 µM [cytotoxic, full curve, poor fit].
In the case of O=C1NCN(c2ccccc2)C12CCN(C(c1ccccc1OC(F)(F)F)c1nnnn1C1CCCC1)CC2 (centres undefined), the Potency is reported as inconclusive: 29.1 µM [cytotoxic, single point].
For O=C1C(Cl)=CC(=Nc2ccc(O)cc2)C=C1Cl, the Potency was inconclusive: 23.1 µM [cytotoxic, single point].
With c1cc2c(cc1CN1CCNCC1)OCO2 the Potency was “inactive”.
In the case of COC(=O)C(O)(c1ccc(NC(=S)NC(=O)c2ccc(Cl)cc2Cl)c(C)c1)C(F)(F)F (centres undefined), the Potency is reported as inconclusive: 18.4 µM [cytotoxic, partial curve, poor fit].
On the % scale 0 is the no-effect control and ±100 the full control effect; potency means the concentration at half of the fitted maximal effect.
